These results are taken from patent US20240417482A1 (CONCEPT TO MEDICINE BIOTECH, published 2024).

T1: cynomolgus 4-1BB-His protein (cynomolgus, UniProt A9YYE7 24-186)
T1 construct: Recombinant His-tagged protein; also called cyno 4-1BB antigen; not shown: His tag
T1 sequence: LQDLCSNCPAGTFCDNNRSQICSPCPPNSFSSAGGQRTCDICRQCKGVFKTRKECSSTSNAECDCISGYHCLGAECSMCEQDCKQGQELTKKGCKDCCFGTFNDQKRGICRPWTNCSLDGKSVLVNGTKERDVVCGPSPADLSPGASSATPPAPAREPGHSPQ

B1: B164 chimeric mAb (VHH)
VHH: EVQLVESGGGLVQAGGSLRLSCAASGSIFSYMFWYRQPQGKQREYVAHITSGGRTNYADSVTGRFTISRGNNDNTMYLQMNNLKPEDTAVYYCAADDAVYTDRTYWGQGTQVTVSS
notes: Alpaca VHH tested as 'chimeric mAb'
B2: B16 chimeric mAb (VHH)
VHH: QVQLVESGGGLVQPGGSLRLSCAASGFTLDYYAIGWFRQAPGKEREGVSCISSSDGSTYYADSVKGRFTISRDNAKNTVYLQMNSLKPEDTAVYYCATDTTTRCPIWSYYVESDYWGQGTQVTVSS
notes: as for B1
B3: B210 chimeric mAb (VHH)
VHH: B2 VHH with Q1E, F27L, T28S, D55G, G56R, Y59N, V93D, Y109N
notes: as for B1
B4: B125 chimeric mAb (VHH)
VHH: B2 VHH with T28A, L29F, D30S, Y31D
notes: as for B1
B5: B31 chimeric mAb (VHH)
VHH: QVQLVESGGGLVQAGGSLRLSCAASGDIFSIMFWYRQPQGKQREYVAHITSNGRTNYADSVTGRFTISRGNNDNTMYLQMDNLKPQDTAVYYCAADDATNTRTYWGQGTQVTVSS
notes: Alpaca VHH tested as 'chimeric mAb' expressed in 293F cells, purified by protein G, detected with anti-human IgG and captured on Protein A; also called B31 chimeric antibody

Substitutions are numbered along the chain they refer to. These are yes or no findings as the source states them, for the method shown. Some entries that bind do so weakly or less than the wild type.

The test concerns the target T1, cynomolgus 4-1BB-His protein. As to the kind of experiment: ELISA, plate coated with cynomolgus 4-1BB-His. For orientation: An ELISA detects its analyte on a solid surface through an enzyme-linked reagent.
Take B1: the binding entry is on record as “binds”.
For B2 the value was “binds”; for B3, “binds”.
For B4, the binding result is “binds”.
Take B5: the binding entry was “binds”.
